Laboratory results from PubChem BioAssay AID1794845 (National Center for Advancing Translational Sciences (NCATS), 2023).
In all, about 6,900 compounds went through this assay and fewer than 10 were called active. Calls come from the whole dose curve; as a rule, active = well fitted curve in the direction sought with a large enough effect; inconclusive = small, poorly fitted or top-dose-only effect, or another doubt; inactive = no such curve, though single readings can be large or run the other way. Some of the results follow.

Amino acid sequences for entries named in this document (tags omitted). A change or cut given only in a name is not applied to a line headed by its entry.
UniProt C7C422: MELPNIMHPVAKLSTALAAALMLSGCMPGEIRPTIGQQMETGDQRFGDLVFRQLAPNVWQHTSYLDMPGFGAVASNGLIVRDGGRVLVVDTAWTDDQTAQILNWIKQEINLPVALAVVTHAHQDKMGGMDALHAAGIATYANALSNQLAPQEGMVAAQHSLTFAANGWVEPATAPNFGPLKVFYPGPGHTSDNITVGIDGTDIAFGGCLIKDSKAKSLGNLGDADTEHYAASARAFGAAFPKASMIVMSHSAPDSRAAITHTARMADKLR

biological target: Metallo-beta-lactamase type 2 (Klebsiella pneumoniae) (UniProt C7C422); assay: qHTS to identify inhibitors of the New Delhi Metallo-beta-lactamase (NDM): primary screen against the NCATS Gemini Collection; conditions: NDM-1 enzyme, meropenem hydrolysis, absorbance 300 nm; at 38.4 µM (top of the series) unless noted; note: % of control where 0% means no effect
Outline: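 Meropenem hydrolysis (50 uM final) by 2 nM NDM-1 read as 300 nm absorbance after 30 min, following >30 min compound–enzyme preincubation in HEPES pH 7.0 with 1 uM ZnSO4 and 0.01% Tween20.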

Activity % (negative = inhibition), inactive:
Cc1cccc2ncc(C(=O)N3CCC4(CCNC(=O)CC4)CC3)c(=O)n12 0.662%
C[C@H]1[C@@H]2[C@@H](O)C([C@H](C)C(=O)NC3CCCCC3)CC[C@@]2(C)CC[C@@H]1NC(=O)C1CC1 (some centres not stated) 6.15% [at 57.5 µM]
COc1ccc(O)c(CN2CCCC(Nc3ccc(F)cc3)C2)c1 (configuration not stated) -0.0764%
Cc1nc(C)c(C(=O)N2CCc3onc(-c4cccc(F)c4)c3C2)s1 -9.17%
CC1(C)N=C(c2ccccc2)C(=O)N1CC(=O)N1CCN(c2ccccc2F)CC1 9.7%
Cn1nc(-c2cccc(F)c2)c(N2CCCCC2)c1NC(=O)Nc1ccccc1 1.89%
COc1ccc(C2(C(=O)N3CCCC(Cn4c(C)nc5cccnc54)C3)CCCCC2)cc1 (configuration not stated) 7.78%
NC(=O)c1ccc2c(c1)C1(CCN(CC3CC3)C1)CN2Cc1ccccc1 (configuration not stated) 13.5% [at 57.5 µM]
O=C(c1cc2ccccc2o1)N1CCC2(CCCN(Cc3ccccc3F)C2)C1 (configuration not stated) 8.54%
CC(C)Oc1ccc2c(NC(=O)[C@H]3CCCO3)nn(CC(F)(F)F)c2c1 5.49%
O=C(CC1C(=O)NCCN1Cc1ccoc1)NCc1nnc2n1CCCCC2 (configuration not stated) 1.94%
CNC(=O)N1CCC(C2CCN(C(=O)CCn3cccn3)C2)CC1 (configuration not stated) 7.59%
O=C(Cn1nc2c(cc1=O)CCCCC2)NC1CCN(C(=O)c2cc3ccccc3[nH]2)CC1 25.4%
Cc1nc([C@@H]2CN(C(=O)c3ccc(Cn4ccnc4)o3)C[C@H]2C(N)=O)n[nH]1 6.59%
O=C(C1CCCN1[S+](=O)([O-])c1cccc(C(F)(F)F)c1)N1CCC(N2CCCC2=O)CC1 (configuration not stated) -0.338%
NC(=O)CNC(=O)C1=C[C@@H](NC(=O)Cc2cccs2)[C@@H](O)[C@H](O)C1 22.9% [at 57.5 µM]
COc1ccccc1CC(=O)N1CCc2c(nc3cc(-c4ccccc4Cl)[nH]n3c2=O)C1 17.7%
COc1ccc2c(c1)C=C(CN1CCCC(O)(CN(C)C)C1)CO2 (configuration not stated) -0.563%
OCc1cc(CC2(NCc3ccccc3O)COC2)no1 2.49% [at 77.1 µM]
CC(C)c1ccc(CN2CCCC3(CCN(c4ncccc4C(N)=O)C3)C2)cc1 (configuration not stated) 0.425%
CN(C)C[C@@H]1CN(c2ncccn2)C[C@H]1N 7.67%
CN(CCc1ccccn1)C(=O)CCC[C@@H]1[C@H]2CCCN3CCC[C@@H](CN1C(=O)c1ccccc1)[C@@H]23 -3.25%
Cc1ccc(CNC(=O)c2ccc3c(c2)CN(Cc2scnc2C)CCO3)cc1 6.22%
CN(C)C(=O)CCC(=O)N1CC[C@@](C)(O)[C@@H](Cc2ccccc2)C1 1.71%
Nc1ncc(C(=O)N2CCC3(CC2)[C@H](O)C[C@@H]3O)c(C(F)(F)F)n1 34.6%
COc1cccc([C@@H]2CN(C(=O)c3oc(C)nc3C)C[C@H]2C(=O)O)c1OC 3.1%
O=[S+]1([O-])NC2(CCN(Cc3ccccc3C(F)(F)F)C2)CNc2ccccc21 (configuration not stated) -0.385%
O=C1CC2(CCN(C(=O)C3CCN(C(=O)c4ccccc4F)CC3)CC2)Oc2ccccc2N1 -5.39%
Cc1ccc(C(=O)N2C[C@@H](C)[C@](O)(C3CC3)C2)s1 11.1%
O=C(CCc1ccccc1)N1CC(Oc2ccccc2-c2nc(-c3ccccc3)no2)C1 7.45%
CC(=O)NC1(C)CCN(Cc2cccc(-c3ccc4c(ccn4C)c3)c2)C1 (configuration not stated) 0.486% [at 57.5 µM]
Cn1nccc1-c1cc2c(cn1)CN(Cc1ccncc1)CCN2 9.19% [at 57.5 µM]
Cc1cccc(CC(=O)N2CCCn3cc(-c4cccc(C#N)c4)nc32)c1 11.8%
CCCc1noc(-c2cccn3c(CNC(=O)c4ccc(OCC)cc4)nnc23)n1 1.32%
CN(C)C(=O)c1nc2sccn2c1Br 2.33% [at 57.5 µM]
CN(CC1CCOC1)C(=O)NCc1ccc(F)cc1 (configuration not stated) -1.01%
O=C(CN1CCOC1=O)N1CCn2nc(C(O)Cc3ccccc3)cc2C1 (configuration not stated) 34.2%
O=C(NC1CCCCC1)O[C@@H]1CO[C@H]2[C@@H]1OC[C@@H]2n1nnnc1SCc1ccco1 101%
CN(Cc1nc(-c2ccccc2)cs1)C(=O)c1cccc(-n2cnnc2)c1 0.0622%
CCOc1ccccc1NC(=O)N1CCCCC1CCn1cc(C(=O)NCC2CC2)nn1 (configuration not stated) 4.32%
O=C(O)[C@@H]1CN(C(=O)Cc2ccc(O)cc2)C[C@H]1c1cccc(F)c1 15.3%
Cc1ccc(S(=O)(=O)NC[C@H]2OC[C@@H](N(C)C)[C@@H]2O)cc1 -1.2% [at 57.5 µM]
COc1ccc(OC)c(CN2CCNc3cc(-c4ccnc(C)c4)ncc3C2)c1 9.57% [at 57.5 µM]
CCn1nc(C(C)C)cc1C(=O)N1C[C@@H]2CCN(C)C[C@]2(C(=O)O)C1 1.2%
Cc1csc(NC(=O)[C@@H]2C[C@@H](c3ccc(F)cc3)N([S+](=O)([O-])c3cccnc3)C2)n1 0.162%
O=C1CN(CC(=O)N2CCC3(CC2)OCCCC3O)C(=O)N1 (configuration not stated) -0.195%
Cc1ccc(-n2ncc3c2CC(C)(C)CC3NS(=O)(=O)c2cn(C)cn2)cc1 (configuration not stated) 1.82%
c1ccc(-c2cc3c(cn2)NCCN(CC2CC2)C3)cc1 46.1% [at 77.1 µM]
Cn1ccc(C(=O)NCc2nnc3n2C(C(=O)NCC2CC2)CC3)n1 (configuration not stated) 4.06%
Cn1nccc1C(=O)N1CCCC(c2nc(-c3ccccc3)no2)CCNC(=O)CC1 (configuration not stated) 12.1%
Cc1ccccc1[C@H]1C[C@@H](O)[C@@H](O)[C@@H]1NC(=O)c1c(-c2ccccc2)noc1C -2.08% [at 57.5 µM]
Cc1cccc(CNC(=O)C2CCc3sc(C(=O)N4CCOCC4)cc3C2)c1 (configuration not stated) 8.54%
NC(=O)[C@@H]1CCCN1C(=O)c1ccc2oc(-c3cccc(F)c3)nc2c1 0.0424%
NCC(=O)N1CCC2(CC1)C(=O)NCN2C(=O)c1ccc(Cl)cc1 4.53%
O=C1CCN(C(=O)[C@@H]2CCCN2C(=O)Nc2ccccc2)CCCCCCN1 -1.52%
CN(C)CCN(C)[C@H]1[C@@H]2OC[C@@H](O2)[C@@H](NCc2ccc(N(C)C)cc2)[C@@H]1O 11.5% [at 57.5 µM]
O=C(NC1CCCCCC1)c1ccc2c(c1)CC(=O)N2Cc1cccc(F)c1 21.3%
Cc1nn(C)c(C)c1S(=O)(=O)NCCc1noc(-c2cccnc2)n1 -3.56%
Cc1noc(C)c1-c1cc2c(cc(C)n2CCN(C)C)c(Nc2ccncn2)n1 17.6% [at 57.5 µM]
Cc1cc(C(F)(F)F)nc(CNc2cc(C3CC(O)C3)nc(N)n2)n1 (configuration not stated) 1.44%
Cc1nn(C)c(C)c1CCN(C)C(=O)C1CCN(C(=O)N2CC3CC(C2)[C@H]2CCCC(=O)N2C3)CC1 (some centres not stated) 9.81%
COc1ccc(N2CCN(C(=O)c3cc4c(s3)CN(C3CCCC3)C4)CC2)cc1 -2.91%
CCCN1CCN(C(=O)c2ccc3c(c2)n(CC)c(=O)c2ccnn23)CC1 5.48%
Cc1ccc(S(=O)(=O)Nc2ccc3c(c2)CN(CCc2ccc(F)cc2)C(=O)C(C)O3)cc1F (configuration not stated) 3.65%
COc1ccc(C(=O)NC[C@@H]2CC[C@H]3C[C@@H]2C3(C)C)cc1 -4.6% [at 57.5 µM]
OC[C@@H]1CNC[C@H]1c1nc(-c2ccncc2)no1 25.5%
O=C(NCc1cc(F)ccc1F)[C@@H]1CNC[C@H]1COc1cccnc1 9.81%
CN(C)Cc1cn(C[C@H]2C[C@@H](NS(=O)(=O)c3ccccc3)[C@H](O)[C@@H]2O)nn1 -0.515% [at 57.5 µM]
COc1ccccc1N1CCN(CC[C@@H]2CC[C@H](O)[C@@H](C(=O)Nc3ccccc3)O2)CC1 7.34%
CN(Cc1cccs1)Cc1cccn1C 8.99% [at 115 µM]
O=C(CNC(=O)c1ccc(-c2cccc(C(F)(F)F)c2)cc1)NCC(F)(F)F 2.39%
CCCCc1nn(CC(=O)N2CCOC(c3ccccc3)C2)c(=O)n1CC (configuration not stated) -0.729%
CC(C)NC(=O)NC[C@H]1OC[C@@H](NCc2ncc[nH]2)[C@@H]1O -0.444% [at 57.5 µM]
CCN(C1CCOCC1)C1CN(C(=O)c2ccccn2)C1 5.74%
COCCn1nnnc1C1CC2(CCOCC2)C(=O)N1CCc1ccc(OC)c(OC)c1 (configuration not stated) -3.87%
O=C(c1ccsc1)N1CCc2c(nc3cc[nH]n3c2=O)C1 1.33%
Cc1ccc(C2=NC3(CCN(C(=O)COc4cccc(C)c4)CC3)ON2)cc1 2.18%
Cc1ccc(C(=O)N2C[C@@H](CN3CCOCC3)[C@@H](CO)C2)cc1O 34.9%
CCCn1ncc(C(=O)NCC2(O)CCCNC2)c1C (configuration not stated) 8.69%
O=C(Nc1ccc(Oc2cccnc2)cc1)C1CCN(CCCc2ccccc2)CC1 -5.62%
Cc1ccc(S(=O)(=O)N(C)C2CCc3ccccc32)cc1 (configuration not stated) 2.91% [at 57.5 µM]
COCc1nnc2n1CCC(NC(=O)Cn1nc(C(F)(F)F)cc1C)CC2 (configuration not stated) -0.452%

Compounds from the list above containing a Cl atom, in the order listed:
Activity % (negative = inhibition), inactive:
COc1ccccc1CC(=O)N1CCc2c(nc3cc(-c4ccccc4Cl)[nH]n3c2=O)C1 17.7%
NCC(=O)N1CCC2(CC1)C(=O)NCN2C(=O)c1ccc(Cl)cc1 4.53%

3 compounds picked at random from the list so far, as already listed:
Activity % (negative = inhibition), inactive:
COCCn1nnnc1C1CC2(CCOCC2)C(=O)N1CCc1ccc(OC)c(OC)c1 (configuration not stated) -3.87%
Cc1nn(C)c(C)c1CCN(C)C(=O)C1CCN(C(=O)N2CC3CC(C2)[C@H]2CCCC(=O)N2C3)CC1 (some centres not stated) 9.81%
Cc1cccc2ncc(C(=O)N3CCC4(CCNC(=O)CC4)CC3)c(=O)n12 0.662%
